# Publication PMC9750872, “Ras-mutant cancers are sensitive to small molecule inhibition of V-type ATPases in mice” (Nature biotechnology, 2022)
# System: 12 human primary cell-based systems
# Assay: BioMAP profiling and benchmarking against reference database
compound,measurement,setting,value
"CC(C)c1c(C(=O)Nc2ccccc2)c(-c2ccccc2)c(-c2ccc(F)cc2)n1CC[C@@H](O)C[C@@H](O)CC(=O)O [Atorvastatin Calcium (Lipitor), Atorvastatin Calcium]",Z-Score vs UCSF_249C,target agent 10 uM,13.18
Nc1ccc(C(=O)Nc2cccc(-c3nc(N4CCOCC4)c4oc5ncccc5c4n3)c2)cn1 [YM-201636],Z-Score vs UCSF_249C,target agent 1.1 uM,12.478
same,Z-Score vs UCSF_249C,target agent 3.3 uM,15.123
CC1=C(/C=C/C(C)=C/C=C/C(C)=C/CO)C(C)(C)CCC1 [Retinol],Z-Score vs UCSF_249C,target agent 30 uM,11.944
O=c1[nH]cc(F)c(=O)[nH]1 [5-Fluorouracil],Z-Score vs UCSF_249C,target agent 90 uM,12.505
C=C[C@]1(C)C[C@@H](OC(=O)CSC(C)(C)CNC(=O)[C@H](N)C(C)C)[C@]2(C)[C@H](C)CC[C@]3(CCC(=O)[C@H]32)[C@@H](C)[C@@H]1O.Cl [Valnemulin HCl],Z-Score vs UCSF_249C,target agent 30 uM,13.254
"O=S(=O)(NCCNC/C=C/c1ccc(Br)cc1)c1cccc2cnccc12 [Compound H-89, H-89]",Z-Score vs UCSF_249C,target agent 10 uM,15.478
Nc1ccc(-c2ccc3ncc4ccc(=O)n(-c5cccc(C(F)(F)F)c5)c4c3c2)cn1 [Torin-2],Z-Score vs UCSF_249C,target agent 12 nM,12.186
O=[N+]([O-])c1ccc(O)c2ncccc12 [8-Hydroxy-5-nitroquinoline],Z-Score vs UCSF_249C,target agent 10 uM,13.184
same,Z-Score vs UCSF_249C,target agent 30 uM,13.492
C/C=C/[C@H]1O[C@@](O)([C@@H](C)[C@H](O)[C@H](C)[C@H]2OC(=O)/C(OC)=C/C(C)=C/[C@@H](C)[C@@H](O)[C@@H](CC)[C@@H](O)[C@H](C)C/C(C)=C/C=C/[C@@H]2OC)C[C@@H](O[C@H]2C[C@@H](O)[C@H](OC(N)=O)[C@@H](C)O2)[C@@H]1C [Concanamycin A],Z-Score vs UCSF_249C,target agent 140 pM,14.564
same,Z-Score vs UCSF_249C,target agent 410 pM,18.096
same,Z-Score vs UCSF_249C,target agent 1.2 nM,18.096
same,Z-Score vs UCSF_249C,target agent 3.7 nM,19.138
same,Z-Score vs UCSF_249C,target agent 11 nM,16.752
same,Z-Score vs UCSF_249C,target agent 33 nM,18.893
same,Z-Score vs UCSF_249C,target agent 100 nM,18.373
CC(=O)O[C@H]1C(=O)[C@@]2(C)[C@H]([C@H](OC(=O)c3ccccc3)[C@]3(O)C[C@H](OC(=O)[C@H](O)[C@@H](NC(=O)c4ccccc4)c4ccccc4)C(C)=C1C3(C)C)[C@]1(OC(C)=O)CO[C@@H]1C[C@@H]2O [Paclitaxel],Z-Score vs UCSF_249C,target agent 10 uM,11.49
same,Z-Score vs UCSF_249C,target agent 30 uM,12.295
CN1CCN(C2=Nc3cc(Cl)ccc3Nc3ccccc32)CC1 [Clozapine],Z-Score vs UCSF_249C,target agent 30 uM,12.077
COc1cc2c(cc1O)CC[C@@H]1[C@@H]2CC[C@]2(C)[C@@H](O)CC[C@@H]12 [2-Methoxyestradiol],Z-Score vs UCSF_249C,target agent 10 uM,11.372
CCC(C)n1ncn(-c2ccc(N3CCN(c4ccc(OCC5COC(Cn6cncn6)(c6ccc(Cl)cc6Cl)O5)cc4)CC3)cc2)c1=O (stereo not shown) [Itraconazole],Z-Score vs UCSF_249C,target agent 3.3 uM,12.183
same,Z-Score vs UCSF_249C,target agent 10 uM,12.79
C=C(C)[C@H]1Cc2c(ccc3c2O[C@@H]2COc4cc(OC)c(OC)cc4[C@@H]2C3=O)O1 [Rotenone],Z-Score vs UCSF_249C,target agent 3.3 uM,13.895
same,Z-Score vs UCSF_249C,target agent 10 uM,12.936
"CCN(CC)CCCC(C)Nc1ccnc2cc(Cl)ccc12 (stereo not shown) [Chloroquine, chloroquine]",Z-Score vs UCSF_249C,target agent 30 uM,13.832
CC[C@H]1OC(=O)[C@H](C)[C@@H](O[C@H]2C[C@@](C)(OC)[C@@H](O)[C@H](C)O2)[C@H](C)[C@@H](O[C@@H]2O[C@H](C)C[C@H](N(C)C)[C@H]2O)[C@](C)(O)C[C@@H](C)CN(C)[C@H](C)[C@@H](O)[C@]1(C)O [Azithromycin],Z-Score vs UCSF_249C,target agent 100 uM,12.047
CNCCC=C1c2ccccc2CCc2ccccc21 [Nortriptyline Hydrochloride],Z-Score vs UCSF_249C,target agent 30 uM,13.441
COc1ccc(/C=C\c2cc(OC)c(OC)c(OC)c2)cc1OP(=O)(O)O [Fosbretabulin Disodium],Z-Score vs UCSF_249C,target agent 41 nM,13.965
same,Z-Score vs UCSF_249C,target agent 120 nM,13.286
same,Z-Score vs UCSF_249C,target agent 370 nM,11.987
CO/C1=C\C(C)=C\[C@@H](C)[C@@H](O)[C@@H](C)C/C(C)=C/C=C/[C@H](OC)[C@@H]([C@@H](C)[C@@H](O)[C@H](C)[C@@]2(O)C[C@@H](O)[C@H](C)[C@@H](C(C)C)O2)OC1=O [Bafilomycin A1],Z-Score vs UCSF_249C,target agent 4.1 nM,19.849
same,Z-Score vs UCSF_249C,target agent 12 nM,21.738
same,Z-Score vs UCSF_249C,target agent 37 nM,19.253
same,Z-Score vs UCSF_249C,target agent 110 nM,18.17
same,Z-Score vs UCSF_249C,target agent 330 nM,17.81
"CCN(CC)CCCC(C)Nc1c2ccc(Cl)cc2nc2ccc(OC)cc12 (stereo not shown) [Quinacrine, quinacrine]",Z-Score vs UCSF_249C,target agent 3.3 uM,13.764
CN1CCC(COc2cnc(-c3cccc(Cn4nc(-c5cccc(C#N)c5)ccc4=O)c3)nc2)CC1 [EMD-1214063],Z-Score vs UCSF_249C,target agent 10 uM,11.72
COc1ccc(NC(=O)c2cc(OCCCN(C)C)nn2Cc2ccccc2)cc1.Cl [CFM 1571 Hydrochloride],Z-Score vs UCSF_249C,target agent 30 uM,14.001
CO[C@H]1C[C@@H]2CC[C@@H](C)[C@@](O)(O2)C(=O)C(=O)N2CCCC[C@H]2C(=O)O[C@H]([C@H](C)C[C@@H]2CC[C@@H](OCCO)[C@H](OC)C2)CC(=O)[C@H](C)/C=C(\C)[C@@H](O)[C@@H](OC)C(=O)[C@H](C)C[C@H](C)/C=C/C=C/C=C/1C [Everolimus],Z-Score vs UCSF_249C,target agent 4.1 nM,14.535
same,Z-Score vs UCSF_249C,target agent 37 nM,14.898
same,Z-Score vs UCSF_249C,target agent 330 nM,15.044
same,Z-Score vs UCSF_249C,target agent 1.1 uM,14.557
same,Z-Score vs UCSF_249C,target agent 3.3 uM,14.235
"CCC(=O)N1CCN(c2ccc(-n3c(=O)ccc4cnc5ccc(-c6cnc7ccccc7c6)cc5c43)cc2C(F)(F)F)CC1 [Torin, Torin1]",Z-Score vs UCSF_249C,target agent 12 nM,12.435
same,Z-Score vs UCSF_249C,target agent 37 nM,12.615
CCCCCCCCc1ccc(CCC(N)(CO)CO)cc1 [FTY720],Z-Score vs UCSF_249C,target agent 3.3 uM,13.156
CN(C(=O)CN(CCO)CC(=O)N(C)C(C)(C)Cc1ccccc1)C(C)(C)Cc1ccccc1 [Oxethazaine],Z-Score vs UCSF_249C,target agent 10 uM,14.875
C/C(O)=C(\C#N)C(=O)Nc1ccc(C(F)(F)F)cc1 [Compound A771726],Z-Score vs UCSF_249C,target agent 50 uM,11.7
COc1ccc(CCN2CCC(Nc3nc4ccccc4n3Cc3ccc(F)cc3)CC2)cc1 [Astemizole],Z-Score vs UCSF_249C,target agent 5.6 uM,11.765
COc1cc2nc(-c3ccc(N4CCN(C)CC4)cc3)nc(NCCN3CCOCC3)c2cc1OC [CPG 52364],Z-Score vs UCSF_249C,target agent 3.3 uM,14.469
CO[C@H]1C[C@@H]2CC[C@@H](C)[C@@](O)(O2)C(=O)C(=O)N2CCCC[C@H]2C(=O)O[C@H]([C@H](C)C[C@@H]2CC[C@@H](O)[C@H](OC)C2)CC(=O)[C@H](C)/C=C(\C)[C@@H](O)[C@@H](OC)C(=O)[C@H](C)C[C@H](C)/C=C/C=C/C=C/1C [Rapamycin],Z-Score vs UCSF_249C,target agent 4.1 nM,13.838
same,Z-Score vs UCSF_249C,target agent 12 nM,14.246
same,Z-Score vs UCSF_249C,target agent 37 nM,14.667
same,Z-Score vs UCSF_249C,target agent 110 nM,14.542
same,Z-Score vs UCSF_249C,target agent 330 nM,14.355
same,Z-Score vs UCSF_249C,target agent 1 uM,14.447
same,Z-Score vs UCSF_249C,target agent 3 uM,14.478
same,Z-Score vs UCSF_249C,target agent 9 uM,14.773
COc1ccc(CCN(C)CCCC(C#N)(c2ccc(OC)c(OC)c2)C(C)C)cc1OC (stereo not shown) [Verapamil],Z-Score vs UCSF_249C,,12.312
CCCCC[C@H](O)/C=C/[C@H]1C(=O)C[C@H](O)[C@@H]1C/C=C\CCCC(=O)O [Prostaglandin D2],Z-Score vs UCSF_249C,target agent 10 uM,11.974
Bleomycin Sulfate,Z-Score vs UCSF_249C,target agent 30 uM,12.593
C[C@@H](Oc1cc(-n2cnc3ccc(CN4CCN(C)CC4)cc32)sc1C(N)=O)c1ccccc1C(F)(F)F [GSK-461364A],Z-Score vs UCSF_249C,target agent 1.1 uM,11.584
same,Z-Score vs UCSF_249C,target agent 3.3 uM,12.399
Cl.Fc1ccc([C@@H]2CCNC[C@H]2COc2ccc3c(c2)OCO3)cc1 [Paroxetine HCl],Z-Score vs UCSF_249C,target agent 30 uM,13.113
CC(C)(N)C(=O)N[C@H](COCc1ccccc1)C(=O)N1CCC2(CC1)CN(S(C)(=O)=O)c1ccccc12 [MK-0677],Z-Score vs UCSF_249C,target agent 30 uM,13.217
OC(c1ccc(-c2ccc(CN3CCN(Cc4ccncc4)CC3)cc2)c(F)c1)(C(F)(F)F)C(F)(F)F [SR2211],Z-Score vs UCSF_249C,target agent 10 uM,15.302
CC(C)CC[C@@H](O)[C@@H](C)[C@H]1CC[C@H]2[C@@H]3CC=C4C[C@@H](O)CC[C@]4(C)[C@H]3CC[C@]12C [22(R)-Hydroxy Cholesterol],Z-Score vs UCSF_249C,target agent 10 uM,12.27
CC[C@@H]([C@H](C)O)n1ncn(-c2ccc(N3CCN(c4ccc(OC[C@@H]5CO[C@@](Cn6cncn6)(c6ccc(F)cc6F)C5)cc4)CC3)cc2)c1=O [Posaconazole],Z-Score vs UCSF_249C,target agent 10 uM,13.495
same,Z-Score vs UCSF_249C,target agent 30 uM,12.067

# Counter-ions that a name gives are not always drawn. Like-named read-outs stand apart in the source and are kept apart here.
